# Data reported in publication PMC7550284, “The functional cooperation of 5-HT1A and mGlu4R in HEK-293 cell line” (Pharmacological Reports, 2020).
# By UniProt entry, the sequences of proteins in these tests, tags left out. Where a name states a change or a piece, a line headed by the entry shows the natural chain unless it says otherwise. Residues count along the entry.
# UniProt Q14833, residues 33-912: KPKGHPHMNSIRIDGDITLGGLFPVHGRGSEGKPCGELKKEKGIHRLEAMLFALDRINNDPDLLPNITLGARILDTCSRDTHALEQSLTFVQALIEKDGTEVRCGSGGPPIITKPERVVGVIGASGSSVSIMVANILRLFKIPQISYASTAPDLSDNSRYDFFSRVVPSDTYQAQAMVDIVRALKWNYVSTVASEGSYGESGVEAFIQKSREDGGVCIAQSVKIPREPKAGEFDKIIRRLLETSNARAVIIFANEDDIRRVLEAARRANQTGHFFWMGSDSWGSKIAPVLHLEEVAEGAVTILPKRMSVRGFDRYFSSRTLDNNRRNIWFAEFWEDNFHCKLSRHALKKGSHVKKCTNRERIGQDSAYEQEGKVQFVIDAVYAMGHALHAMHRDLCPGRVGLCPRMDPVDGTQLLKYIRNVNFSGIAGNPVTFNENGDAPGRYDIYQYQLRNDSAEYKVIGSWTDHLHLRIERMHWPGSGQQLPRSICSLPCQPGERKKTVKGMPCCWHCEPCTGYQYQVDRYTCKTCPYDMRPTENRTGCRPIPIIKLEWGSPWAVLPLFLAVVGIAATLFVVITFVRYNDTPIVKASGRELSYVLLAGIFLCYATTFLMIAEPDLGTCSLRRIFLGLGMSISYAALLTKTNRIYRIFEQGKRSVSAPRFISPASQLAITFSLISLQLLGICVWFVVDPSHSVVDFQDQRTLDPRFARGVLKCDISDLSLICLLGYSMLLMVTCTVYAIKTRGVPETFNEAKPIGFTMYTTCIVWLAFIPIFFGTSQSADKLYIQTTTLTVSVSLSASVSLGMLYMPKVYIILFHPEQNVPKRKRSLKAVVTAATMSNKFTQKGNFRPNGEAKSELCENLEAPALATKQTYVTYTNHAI
# No constants are given. Whether binding was seen depends on the method and setting. Binding seen in cells or lysates may run through a third protein. Some entries that bind do so weakly or less than the wild type.
# Target: human metabotropic glutamate receptor 4 (GRM4, variant 1) with the SNAP-tag inserted after the 28th amino acid (human) (UniProt Q14833)
# Experiment: FRET or BRET; homogeneous time-resolved FRET on intact T-REx 293 cells expressing one SNAP-tagged receptor; labelled with 100 nM Snap-Tb (donor) and 150 nM Snap-Green (acceptor), 2 h at 37 °C; read in Hanks-HEPES buffer, 20,000 cells per well; controls: buffer, nonlabeled, single-labeled cells, 1:1 mix of separately labeled cells
substance,measurement,value
"human metabotropic glutamate receptor 4 (GRM4, variant 1) with the SNAP-tag inserted after the 28th amino acid (from UniProt Q14833-1 33-912)",binding,binds
